Experimental data taken from article PMC7657459, “A second hybrid-binding domain modulates the activity of Drosophila ribonuclease H1”.
Results are given in words; binding and its absence hold for the method and conditions named. Binding seen in cells or lysates may run through a third protein. Here binding means that the protein was enriched with, or labelled near, the bait; the list need not be complete.

Protein sequences, listed by entry. Tags and fused reporters are not part of them. Lines headed by an entry give the natural chain unless they say otherwise; changes in a name come on top.
UniProt A1Z769: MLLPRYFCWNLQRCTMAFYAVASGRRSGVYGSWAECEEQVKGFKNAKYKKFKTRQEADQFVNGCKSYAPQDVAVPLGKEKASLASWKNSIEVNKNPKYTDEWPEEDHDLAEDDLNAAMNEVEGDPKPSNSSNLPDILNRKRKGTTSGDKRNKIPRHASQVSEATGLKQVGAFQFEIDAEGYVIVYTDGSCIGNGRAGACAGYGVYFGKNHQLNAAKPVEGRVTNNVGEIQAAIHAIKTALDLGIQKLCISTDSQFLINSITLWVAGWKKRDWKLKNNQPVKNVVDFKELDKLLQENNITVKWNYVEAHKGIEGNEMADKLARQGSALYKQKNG
UniProt Q9VDT1: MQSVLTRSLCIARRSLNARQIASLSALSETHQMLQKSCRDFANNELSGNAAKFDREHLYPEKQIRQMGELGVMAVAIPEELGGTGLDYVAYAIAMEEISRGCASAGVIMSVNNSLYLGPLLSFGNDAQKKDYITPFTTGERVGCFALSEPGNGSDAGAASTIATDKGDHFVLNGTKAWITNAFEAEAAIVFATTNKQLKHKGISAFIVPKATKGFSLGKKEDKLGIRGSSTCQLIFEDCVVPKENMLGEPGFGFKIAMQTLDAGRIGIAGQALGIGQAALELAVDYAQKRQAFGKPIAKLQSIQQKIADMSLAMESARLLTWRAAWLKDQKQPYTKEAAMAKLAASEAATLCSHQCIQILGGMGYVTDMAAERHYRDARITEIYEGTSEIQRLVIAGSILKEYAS
UniProt Q9VB10: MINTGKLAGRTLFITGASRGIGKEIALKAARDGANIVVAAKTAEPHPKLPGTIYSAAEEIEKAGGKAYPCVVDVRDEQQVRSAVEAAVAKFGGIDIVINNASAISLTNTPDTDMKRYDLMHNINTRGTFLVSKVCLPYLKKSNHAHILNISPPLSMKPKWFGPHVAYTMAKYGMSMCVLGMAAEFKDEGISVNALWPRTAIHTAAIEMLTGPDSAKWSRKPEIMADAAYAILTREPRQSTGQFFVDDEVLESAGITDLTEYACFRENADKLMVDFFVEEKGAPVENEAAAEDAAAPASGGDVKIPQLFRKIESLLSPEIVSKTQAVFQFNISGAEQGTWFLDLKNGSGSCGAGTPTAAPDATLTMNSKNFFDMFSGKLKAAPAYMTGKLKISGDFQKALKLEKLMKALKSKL
UniProt Q9VXY3: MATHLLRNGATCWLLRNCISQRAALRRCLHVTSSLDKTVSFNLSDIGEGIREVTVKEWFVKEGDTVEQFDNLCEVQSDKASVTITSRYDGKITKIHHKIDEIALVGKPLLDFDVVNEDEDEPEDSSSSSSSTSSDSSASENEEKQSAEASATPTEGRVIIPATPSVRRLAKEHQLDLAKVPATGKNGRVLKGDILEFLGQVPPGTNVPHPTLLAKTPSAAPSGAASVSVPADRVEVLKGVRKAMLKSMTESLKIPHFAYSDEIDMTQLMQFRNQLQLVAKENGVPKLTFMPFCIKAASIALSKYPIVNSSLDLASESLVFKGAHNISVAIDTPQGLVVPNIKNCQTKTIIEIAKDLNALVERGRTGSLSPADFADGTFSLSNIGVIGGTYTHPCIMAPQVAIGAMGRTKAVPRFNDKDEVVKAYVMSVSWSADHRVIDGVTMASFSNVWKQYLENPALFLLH
UniProt Q9VAC1: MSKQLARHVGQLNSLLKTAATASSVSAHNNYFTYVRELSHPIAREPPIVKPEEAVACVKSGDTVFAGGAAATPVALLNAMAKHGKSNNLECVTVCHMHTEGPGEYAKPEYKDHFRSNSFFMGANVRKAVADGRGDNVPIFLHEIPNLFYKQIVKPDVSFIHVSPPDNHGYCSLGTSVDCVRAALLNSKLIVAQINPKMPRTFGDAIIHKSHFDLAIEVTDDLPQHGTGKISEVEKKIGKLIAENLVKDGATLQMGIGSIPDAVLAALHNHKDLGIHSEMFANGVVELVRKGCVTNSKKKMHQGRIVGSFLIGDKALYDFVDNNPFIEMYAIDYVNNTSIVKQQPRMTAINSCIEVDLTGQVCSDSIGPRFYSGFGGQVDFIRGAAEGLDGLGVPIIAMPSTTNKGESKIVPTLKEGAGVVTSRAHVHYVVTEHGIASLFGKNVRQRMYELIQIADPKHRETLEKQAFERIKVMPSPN
UniProt A1Z934: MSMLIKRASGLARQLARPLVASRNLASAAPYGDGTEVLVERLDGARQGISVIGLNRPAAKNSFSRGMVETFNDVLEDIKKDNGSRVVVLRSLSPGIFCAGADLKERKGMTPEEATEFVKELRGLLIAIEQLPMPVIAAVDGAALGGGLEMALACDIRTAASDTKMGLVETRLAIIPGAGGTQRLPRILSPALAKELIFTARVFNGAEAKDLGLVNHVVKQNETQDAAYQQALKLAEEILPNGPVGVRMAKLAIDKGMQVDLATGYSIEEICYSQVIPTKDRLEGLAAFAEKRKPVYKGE
UniProt Q9VES8: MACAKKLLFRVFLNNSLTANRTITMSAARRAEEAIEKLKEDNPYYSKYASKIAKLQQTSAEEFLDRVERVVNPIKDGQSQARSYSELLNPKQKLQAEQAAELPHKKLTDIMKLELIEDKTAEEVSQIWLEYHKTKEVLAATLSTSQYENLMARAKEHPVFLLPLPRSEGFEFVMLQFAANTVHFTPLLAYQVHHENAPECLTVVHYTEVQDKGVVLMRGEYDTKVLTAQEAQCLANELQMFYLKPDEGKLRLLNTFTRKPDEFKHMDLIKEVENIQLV
UniProt Q9VRJ4: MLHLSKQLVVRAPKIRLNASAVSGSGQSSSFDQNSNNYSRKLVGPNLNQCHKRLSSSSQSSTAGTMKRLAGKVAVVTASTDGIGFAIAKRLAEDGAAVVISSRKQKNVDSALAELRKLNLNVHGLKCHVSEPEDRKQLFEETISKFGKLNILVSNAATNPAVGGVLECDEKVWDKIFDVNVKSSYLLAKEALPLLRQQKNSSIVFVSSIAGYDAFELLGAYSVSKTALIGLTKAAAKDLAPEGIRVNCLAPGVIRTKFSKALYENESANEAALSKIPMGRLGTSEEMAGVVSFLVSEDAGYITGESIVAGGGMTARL
UniProt Q9VL60: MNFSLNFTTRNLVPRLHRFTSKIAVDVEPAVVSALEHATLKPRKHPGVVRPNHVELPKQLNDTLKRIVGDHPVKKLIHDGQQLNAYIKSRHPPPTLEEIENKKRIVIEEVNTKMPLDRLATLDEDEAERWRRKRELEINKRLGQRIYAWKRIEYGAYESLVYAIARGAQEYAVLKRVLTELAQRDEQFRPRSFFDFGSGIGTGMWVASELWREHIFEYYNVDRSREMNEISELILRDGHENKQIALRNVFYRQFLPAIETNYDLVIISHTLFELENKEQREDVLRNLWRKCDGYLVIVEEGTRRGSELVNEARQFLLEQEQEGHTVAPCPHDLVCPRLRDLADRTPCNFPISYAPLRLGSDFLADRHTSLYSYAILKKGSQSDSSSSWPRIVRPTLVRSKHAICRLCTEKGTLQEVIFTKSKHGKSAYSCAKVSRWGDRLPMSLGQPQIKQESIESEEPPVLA
UniProt Q9VD14: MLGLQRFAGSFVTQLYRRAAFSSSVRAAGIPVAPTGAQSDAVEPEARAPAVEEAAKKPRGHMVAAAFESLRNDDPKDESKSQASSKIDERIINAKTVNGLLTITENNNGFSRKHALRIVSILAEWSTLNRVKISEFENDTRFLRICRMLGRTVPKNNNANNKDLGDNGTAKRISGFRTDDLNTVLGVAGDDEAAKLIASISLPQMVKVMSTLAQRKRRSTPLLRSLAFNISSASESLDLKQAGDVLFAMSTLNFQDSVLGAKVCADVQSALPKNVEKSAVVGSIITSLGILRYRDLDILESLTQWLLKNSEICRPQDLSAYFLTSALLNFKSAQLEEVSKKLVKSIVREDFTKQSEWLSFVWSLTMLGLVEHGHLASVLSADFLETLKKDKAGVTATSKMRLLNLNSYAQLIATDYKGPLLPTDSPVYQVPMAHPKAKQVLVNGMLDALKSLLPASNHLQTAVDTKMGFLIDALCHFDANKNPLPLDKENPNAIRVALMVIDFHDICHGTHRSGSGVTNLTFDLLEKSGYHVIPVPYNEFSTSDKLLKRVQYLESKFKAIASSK
UniProt O97125: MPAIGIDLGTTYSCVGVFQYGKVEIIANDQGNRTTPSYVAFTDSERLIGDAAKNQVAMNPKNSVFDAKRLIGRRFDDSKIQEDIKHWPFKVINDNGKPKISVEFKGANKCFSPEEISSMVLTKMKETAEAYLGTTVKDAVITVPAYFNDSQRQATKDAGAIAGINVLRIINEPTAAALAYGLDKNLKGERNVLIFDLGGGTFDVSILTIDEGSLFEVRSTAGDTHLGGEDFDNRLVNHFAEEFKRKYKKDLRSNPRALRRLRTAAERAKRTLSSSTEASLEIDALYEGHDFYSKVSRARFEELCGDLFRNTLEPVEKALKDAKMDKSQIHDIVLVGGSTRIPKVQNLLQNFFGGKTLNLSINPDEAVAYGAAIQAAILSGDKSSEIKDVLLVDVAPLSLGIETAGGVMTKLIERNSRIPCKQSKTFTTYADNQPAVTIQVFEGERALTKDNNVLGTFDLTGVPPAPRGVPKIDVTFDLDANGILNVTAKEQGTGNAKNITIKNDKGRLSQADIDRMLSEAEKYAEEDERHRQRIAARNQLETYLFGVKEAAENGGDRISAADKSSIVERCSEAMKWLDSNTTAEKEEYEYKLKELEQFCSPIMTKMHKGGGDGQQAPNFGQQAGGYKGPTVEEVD
UniProt Q9VZ82: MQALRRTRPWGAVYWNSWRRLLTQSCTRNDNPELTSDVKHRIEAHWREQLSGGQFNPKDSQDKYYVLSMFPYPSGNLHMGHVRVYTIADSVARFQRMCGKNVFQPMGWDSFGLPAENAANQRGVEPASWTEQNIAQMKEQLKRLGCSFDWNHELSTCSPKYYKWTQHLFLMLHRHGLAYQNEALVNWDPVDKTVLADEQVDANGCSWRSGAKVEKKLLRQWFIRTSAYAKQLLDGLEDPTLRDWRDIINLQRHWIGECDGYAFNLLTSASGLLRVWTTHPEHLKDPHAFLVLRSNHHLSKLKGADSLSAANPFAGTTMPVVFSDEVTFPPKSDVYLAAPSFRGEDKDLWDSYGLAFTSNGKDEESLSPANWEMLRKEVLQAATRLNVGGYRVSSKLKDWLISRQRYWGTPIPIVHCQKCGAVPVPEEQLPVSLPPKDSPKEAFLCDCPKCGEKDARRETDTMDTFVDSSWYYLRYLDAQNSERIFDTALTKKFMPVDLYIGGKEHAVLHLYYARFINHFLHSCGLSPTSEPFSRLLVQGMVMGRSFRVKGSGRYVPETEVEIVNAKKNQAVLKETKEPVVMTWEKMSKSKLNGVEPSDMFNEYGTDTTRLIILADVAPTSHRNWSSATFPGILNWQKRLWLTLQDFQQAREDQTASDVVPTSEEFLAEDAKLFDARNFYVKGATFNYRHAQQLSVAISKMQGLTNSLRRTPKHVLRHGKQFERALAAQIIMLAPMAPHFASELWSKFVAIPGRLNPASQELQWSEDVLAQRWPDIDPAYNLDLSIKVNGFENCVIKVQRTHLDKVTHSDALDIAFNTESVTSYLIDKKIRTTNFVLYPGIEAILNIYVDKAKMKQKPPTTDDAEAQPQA
UniProt Q9VQD7: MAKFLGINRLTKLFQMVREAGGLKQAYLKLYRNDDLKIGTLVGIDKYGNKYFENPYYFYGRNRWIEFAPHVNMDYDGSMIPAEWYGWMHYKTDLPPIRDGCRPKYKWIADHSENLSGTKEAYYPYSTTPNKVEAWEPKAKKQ
UniProt Q9V470: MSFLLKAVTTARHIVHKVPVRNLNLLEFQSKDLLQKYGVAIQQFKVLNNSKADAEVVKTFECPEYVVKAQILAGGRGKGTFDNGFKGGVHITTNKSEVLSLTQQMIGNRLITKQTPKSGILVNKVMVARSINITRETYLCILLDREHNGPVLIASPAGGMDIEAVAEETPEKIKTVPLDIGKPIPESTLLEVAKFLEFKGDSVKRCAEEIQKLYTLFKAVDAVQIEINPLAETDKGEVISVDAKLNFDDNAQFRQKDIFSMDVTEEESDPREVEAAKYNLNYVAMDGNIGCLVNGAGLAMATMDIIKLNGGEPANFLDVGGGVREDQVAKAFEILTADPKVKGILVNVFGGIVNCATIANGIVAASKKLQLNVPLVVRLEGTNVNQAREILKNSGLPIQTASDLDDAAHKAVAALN
UniProt A1Z9E3: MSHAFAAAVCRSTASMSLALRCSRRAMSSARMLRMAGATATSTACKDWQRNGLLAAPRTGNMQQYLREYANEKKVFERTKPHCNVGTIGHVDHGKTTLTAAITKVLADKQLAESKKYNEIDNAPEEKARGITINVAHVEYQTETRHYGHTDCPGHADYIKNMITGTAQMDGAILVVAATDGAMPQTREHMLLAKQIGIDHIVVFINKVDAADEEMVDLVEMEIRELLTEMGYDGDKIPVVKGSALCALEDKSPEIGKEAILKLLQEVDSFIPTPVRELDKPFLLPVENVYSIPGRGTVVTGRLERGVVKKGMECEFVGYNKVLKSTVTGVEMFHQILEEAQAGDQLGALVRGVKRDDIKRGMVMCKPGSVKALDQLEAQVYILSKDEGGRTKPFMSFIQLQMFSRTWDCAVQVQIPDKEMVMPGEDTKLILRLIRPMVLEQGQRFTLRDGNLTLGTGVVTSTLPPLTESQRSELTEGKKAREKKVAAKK

B1: Medium-chain acyl-CoA dehydrogenase (protein, UniProt Q9VSA3 23-419)
chain: AAVSHVSPNGTSFALTEDQLQLQELARKFTREEIIPVAAQYDKSGEYPWPIIKKAWELGLMNNHIPADIGGLDLDVFTTCLSAEELAYGCTGIMTALEASGLGQTPVILSGNKEQKKKYLGRLLEEPLVAAYCVTEPGAGSDVSGIKTRAEKKGDEWVINGQKMWITNGGVANWYFVLARTNPDPKCPPSKAFTGFIVERDSPGLTPGRKELNMGQRASDTRGITFEDVRVPKENVLIGEGAGFKIAMGTFDKTRPPVAAGAVGLAQRCLDEALKYALERKTFGVPIAYHQAVQFMLADMAIGVETSRLAWRLSAWEIDQGRRNSYYASIAKCHAADMANKIASDAVQIFGGNGFNSEYPVEKLMRDAKIYQIYEGTSQIQRLIISRNMYEAAKGQA
B2: Enigma (protein, UniProt Q5U117 27-639)
chain: STKATSSSLDSQHQDAATTEGGRAESVEESPEQQRKLPTREPLAKNFFIGVVDKELLAYPEVIPRDEMAQLENSLLPLKNYFVEPRETEETSPETLRQLGLYGLNVSTDYEGKGYGWSASLMASEPDSTDINVTLGLQTHRVVVDLLKEVGTPLQQQRYLQDLATGKLIGTEAIYEISPPEEDYFNTTAELFPEYGKWQLNGEKSFVICTPGERQLFLVLAQTQQPNVPGVLGRGTTIFLVDSQQEGVRLGEKHATFGCRKAEIRRVHFEGVKLGEDQVVGLPHDGNRYSEQLVRSSRLRGSLVGLSLAKKLLNELAQYTVNTTQCGVQLQDLELTRIHMSRAMCSVYAMESMLYLTAGLLDEFRAQDVTLESAITKYFTLRQVYAIASQNLGVVGPKSLLSGETTELGLRDAAQLCTQGESLDTLGMFIALTGLQHAGQAMNTGVRKSRNPLFNPGHIFGKFLDNNSIDNPKTKMQLSEHVHPSLEAAAQCIELSVARLQMAVELMFTKHGNAVVERQSEMQRLAEVGTLIYAMWASVARASRSYCIGLPLADHELLTATAICSEGRDRVRTLCTEIYGGHFVNNDNNLVRLSKQVAKSKGYFAVHPLTFNF
B3: Mitochondrial elongation factor Ts (protein, UniProt Q9VJC7 19-318)
chain: AGSGGSGGLEKSALAALRKKTGYTFANCKKALEKHNNDVGLAEKWLHEQAQTLGWSKATKVADRATAHGLIGVLIRGNRGAMVELNCETDFVARNDTFKRFVDHVACMCLQYTDLTDFDGDLWKLGFDADALRNLRTEEGRTLGDHLALLIGAIGENATIRRALCFKANNDLKLVGYAHPAPTNVGTTEGITQVGKYGAIVAYRSTHPLLDFEFHKSICQQIVGMKPTKIGEYDKDKPAENKDDETCLIHQEYLLDADKTVGEALQEHNCEIVDYHRFECGEHTERSLEAIIRSQHQSSN
B4: Methylcrotonoyl-CoA carboxylase 2 (protein, UniProt Q9V9A7 30-578)
chain: LHSEVDKQSAEYKENAREMASLVGDLRNFTSQVLKGGGQKAIERHTSRGKLLARERINLLLDKGSPFLELSALAGHELYGEEVVNSGGIVTGVGRVCGTECLVVANDATVKGGSYYPITVKKHLRAQEIAQENRLPCIYLVDSGGANLPRQADVFPDKLHFGRIFYNQANMSAQGIPQIAVVMGSCTAGGAYVPAMADESIIVKKQGTIFLAGPPLVKAATGEEVSAEDLGGADLHCKTSGVTDHYALDDEHALYLARQIVSNLNLSATNSYNDQLMHSSQVNFQTATPPSAVEEPRYDAEELYGIVGPNLTKSFDVREVIARIVDGSRFTEFKKLYGETLVCGFAKLYGHTVGIVGNNGVLFSESALKGAHFIQLCAQRKIPLVFLQNITGFMVGRDAEANGIAKNGAKMVTAVACANVPKFTVIIGGSYGAGNYGMCGRAYSPRFLYMWPNSRISVMGGTQAANVMAQITEDQRKRAGKEFSEEEAQKLKAPIVEMFEAEGSPYYSTARLWDDGIIDPANTRQILGLSLKAALNNAGQETKFGVFRM
B5: Electron transfer flavoprotein-ubiquinone oxidoreductase (protein, UniProt Q7JWF1 24-604)
chain: DVAKYPRITTHYTLNPREKDERWTEVDMERCVEEVDLVIVGGGPAGMSAAIRAKQLAAEKDQEIRVCVVEKAAEVGGHILSGAVIDPISLNELIPDWQEQGAPLNTPVTKDTFSFLTGSGRISIPVFKGWPMDNHGNYVVRLGHLVKWLGDQAEALGVEIYPGCAASEVLFHEDGSVKGIATNDVGIAKSGAPKDTFARGMELHAKTTIFAEGCRGHLTKQIMQKFGLNEGSEPQAYGIGLKEVWEIAPEKHQPGLVEHTIGWPLDRFTYGGSFLYHLNEPTPTIAVGFVVGLNYKNPWLSPFQEFQRFKTHPKVRDVFEGATRIAYGARAINEGGFQSLPQKLSFPGGCLVGCSAGFLNVPRIKGSHYAMKSGMLAAESAFEAINADAQSTAGVEPTGYAEKIKDSFVWKDLYSVRNVHPSFHNPLGLYGGLVLSGFSIFMGGREPWTLKHGPQDHESLKPASSCPPIVYPKPDGKISFDLLSSVALTGTNHEGDQPAHLTLKDDRIPVDHNLALYEGPEQRFCPAGVYEYVPNEEGGNMKLQINAQNCIHCKTCDIKDPKQNINWVVPEGGGGPAYNGM
B6: bad egg (protein, UniProt Q8T3L6 24-379)
chain: SDAAKATTETSALLQNAEKRQQLLNELSEPLEQKGRPAIDPKETSVMLFPGQGTQYVGMAKDLLRFPGARRIFELANEVLKYDLLKICLEGPREKLNRTEHAQLAVMVSSLAALEQLREERPKAIETCVAAAGFSLGEITALVYADALPFDKALRLVQVRATAMQAACDQAAGAMAMTLYGPDTNLGEACARAQQWCLDKGVESPYCGIANYMYPHCKVVAGNVEALEFLEQNAKSFKIRRMKRLAVSGAFHTPLMQSAVEPFTKALKTVRLQDPVIRVYSNVDGKPYRHAKHILTQLPKQIVRPVKWEQTLHEMYERKQGVDFPRTFECGPGKGLVQVLEKVNAKAAQSSFNVIA
B7: NADH-ubiquinone oxidoreductase 75 kDa subunit (protein, UniProt Q94511 28-731)
chain: SAMVAQTPAKAPEKIEVFVDDIPVQVVPGTTVLQAAAQIGVEIPRFCYHERLAVAGNCRMCLVEVEKSPKPVAACAMPVMKGWRIKTNSDLTRKAREGVMEFLLMNHPLDCPICDQGGECDLQDQAMAFGSDRSRFTDINYTGKRAVEDKDIGPLVKTIMTRCIHCTRCVRFASEIAGVDDLGTTGRGNDMQIGTYVEKLFLTELSGNVIDLCPVGALTNKPYSFVARPWEIRKVSSIDVLDAVGSNIVVSTRTNEVLRILPRENEDVNEEWLADKSRFACDGLKRQRLVAPMVRMPNGELQAVEWEGALIAVAKAIKAAGGQIAGISGQLADLEAQVALKDLLNRLGSEVVATEQGFIAGGTDNRANYLLNSTIAGLEEADAVLLVGTNPRYEAPLVNTRLRKAYVHNELQIASIGPKIDLSYDHENLGADAALVKDVCSGAHAFSKVLEGAKKPAIIIGADLLERADGAAIHATVAEYCKKLKKPNWNPFNVLQTNAAQVGALDVGYKAGAQTAVKAQPKVLFLLNADAGKVTREQLPKDCFVVYIGSHGDNGASIADAVLPGAAYTEKQGIYVNTEGRPQQTLPGVSPPGMAREDWKILRALSEVVGKPLPYDNLDELRNRLEDVAPHLTRLGQLEPAGDAGAAGTISKSIGGGAIDIKLKELRDYFMTDAISRASPTMAKCISAVNKQQRENEAKQSVAI
B8: CG16935 [Trans-2-enoyl-CoA reductase (NADPH)] (protein, UniProt Q9V6U9 20-357)
chain: SVVAKSLKYTQHGEPQEVLQLVEDKLPDPKDNQVLVKILAAPINPADINTIQGKYPVKPKFPAVGGNECVAEVICVGDKVKGFEAGQHVIPLASGLGTWTTHAVYKEDQLLIVSKKVGLAEAATSTVNPTTAYRMLKDFVQLCPGDTVIQNGANSAVGQAVHQLCRAWGINSVGIVRDRPEIAELKQMLQCLGATEVLTEAEIRTSDIFKSGKLKKPRLAFNCVGGKSATEVSRHLDNGGVLVTYGGMSREPVTVATGPLIFKDIAFRGFWMTRWSKENYSSPERSKMFKEIFELMEQGKFVAPNHEMVPLAKFKDAAAAALSFKGFTGKKYILDMSI
B9: Peroxiredoxin 3 (protein, UniProt Q9VEJ0 31-234)
chain: LHQTAPLAAVRVQQPAPDFKGLAVVDNSFQEVKLEDYRGKYLVLFFYPLDFTFVCPTEIVAFSERIKEFHDINTEVLGVSVDSHFSHLTWCNVDRKNGGVGQLKYPLLSDLTKKISADYDVLLDKEGISLRGTFIIDPNGILRQYSINDLPVGRSVDEVLRLIKAFQFVEQHGEVCPANWNPNSNPATIKPDVEESKKYFSKHG

Each molecule was assayed against Drosophila melanogaster ribonuclease H1, V5/His epitope-tagged (Drosophila melanogaster) (UniProt A1Z769) (assay: affinity purification with mass spectrometry; S2 cells expressing the tagged RNase H1 bait, cross-linked in vivo with 1% formaldehyde, RIPA lysis, RNase A/DNase I/Benzonase treatment, anti-V5 immunoprecipitation, LC-MS/MS; hits found in all 5 replicates of a bait and absent from all mtYFP controls).

binding, binds:
Arc42 [Short-chain acyl-CoA dehydrogenase] (from UniProt Q9VDT1)
CG2794 (from UniProt Q9VPR3)
CG4860 [Short-chain acyl-CoA dehydrogenase] (from UniProt Q9VGC2)
CG5590 (from UniProt Q9VB10)
CG5599 (from UniProt Q9VXY3)
CG7920, isoform A (from UniProt Q9VAC1)
CG8778 [enoyl-CoA hydratase] (from UniProt A1Z934)
CG8993 (from UniProt Q9W022)
CG10194 (from UniProt Q7JVR6)
CG10340 (from UniProt Q9VES8)
CG10672 [Carbonyl reductase (NADPH)] (from UniProt Q9VRJ4)
CG11267 [Hsp10 chaperonin subunit] (from UniProt Q9VU35)
CG13126 (from UniProt Q9VL60)
CG13850 (from UniProt Q9VD14)
Heat shock protein 68 (from UniProt O97125 1-635)
Leucyl-tRNA synthetase, mitochondrial (from UniProt Q9VZ82)
NADH dehydrogenase (ubiquinone) B17.2 subunit (from UniProt Q9VQD7)
Rab7 (from UniProt O76742 1-207)
Succinyl-coenzyme A synthetase β subunit, GDP-forming (from UniProt Q9V470)
mitochondrial elongation factor Tu (from UniProt A1Z9E3)

Target: Drosophila melanogaster ribonuclease H1, V5/His epitope-tagged (Drosophila melanogaster) (UniProt A1Z769)
Test: as above
Remark: another data set of the same source

binding, binds:
B1
B2
B3
B4
B5
B6
B7
B8
B9
